Reference: PMC11018839, “ANKFY1 bridges ATG2A-mediated lipid transfer from endosomes to phagophores” (Cell Discovery, 2024)
These are yes or no findings as the source states them, for the method shown. In cells and extracts the contact can be indirect. Some entries that bind do so weakly or less than the wild type. For some of these results: Where a sequence is shown, tags or fusion partners need not be part of it. Blank lines part the entries; values can stand above or below the binder they belong to.

How the values were obtained:
Flag-ATG2A (human) = Flag-ATG2A (human) (UniProt Q2TAZ0); assay: co-IP; HEK293T co-expressing tagged ANKFY1 and Flag-ATG2A; lysates immunoprecipitated with anti-Flag antibody; with or without 200 nM Torin 1 for 3 h, or regular culture, amino acid starvation or glucose starvation for 6 h; lysis buffer 20 mM Tris-HCl pH 7.5, 150 mM NaCl, 0.5% NP-40, 1 mM EDTA
ATG2A-N (1–345) (human) = target: T1, ATG2A-N (1–345) (human) (UniProt Q2TAZ0); assay: co-IP; immunoprecipitation of ATG2A fragments (1113-1938 or 1-345) with WIPI4 or ANKFY1, with or without expression of the third protein (ANKFY1 or WIPI4)
T1 sequence: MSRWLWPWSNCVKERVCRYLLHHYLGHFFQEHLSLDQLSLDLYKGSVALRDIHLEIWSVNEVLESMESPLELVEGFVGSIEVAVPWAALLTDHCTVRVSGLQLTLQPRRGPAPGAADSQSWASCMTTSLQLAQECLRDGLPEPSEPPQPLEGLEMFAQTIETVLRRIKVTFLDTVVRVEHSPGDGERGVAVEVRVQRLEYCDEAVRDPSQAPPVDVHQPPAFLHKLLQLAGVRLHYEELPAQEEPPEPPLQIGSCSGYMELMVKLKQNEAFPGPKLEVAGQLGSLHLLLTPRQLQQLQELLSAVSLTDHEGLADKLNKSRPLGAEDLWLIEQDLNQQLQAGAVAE

[1] = target: T2, ATG2A-C (1113–1938) (human) (UniProt Q2TAZ0); assay: as above
T2 sequence: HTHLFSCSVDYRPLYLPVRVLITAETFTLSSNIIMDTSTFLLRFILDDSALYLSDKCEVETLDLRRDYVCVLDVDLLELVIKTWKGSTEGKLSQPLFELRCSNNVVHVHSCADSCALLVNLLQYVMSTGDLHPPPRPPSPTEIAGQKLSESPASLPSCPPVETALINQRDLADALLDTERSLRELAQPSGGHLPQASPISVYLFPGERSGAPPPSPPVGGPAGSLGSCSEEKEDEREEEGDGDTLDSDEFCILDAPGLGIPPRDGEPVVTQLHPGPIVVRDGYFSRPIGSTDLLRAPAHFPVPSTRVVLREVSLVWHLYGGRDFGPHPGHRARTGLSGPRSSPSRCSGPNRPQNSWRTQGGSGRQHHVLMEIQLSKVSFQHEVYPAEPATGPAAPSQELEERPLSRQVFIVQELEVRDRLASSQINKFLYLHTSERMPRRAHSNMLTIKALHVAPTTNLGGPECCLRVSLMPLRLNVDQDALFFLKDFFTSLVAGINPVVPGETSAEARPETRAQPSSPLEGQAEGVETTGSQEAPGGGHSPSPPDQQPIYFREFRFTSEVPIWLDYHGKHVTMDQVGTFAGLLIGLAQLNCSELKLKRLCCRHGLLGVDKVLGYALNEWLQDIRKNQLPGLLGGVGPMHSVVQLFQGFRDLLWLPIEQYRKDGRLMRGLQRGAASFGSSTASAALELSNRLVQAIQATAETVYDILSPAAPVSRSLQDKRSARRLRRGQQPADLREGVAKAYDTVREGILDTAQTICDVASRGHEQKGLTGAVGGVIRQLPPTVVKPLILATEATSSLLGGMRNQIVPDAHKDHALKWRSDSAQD

binding (Flag-ATG2A (human)): binds
B1: GFP-ANKFY1 (protein, UniProt Q9P2R3 1-1169)
chain: MAEEEVAKLEKHLMLLRQEYVKLQKKLAETEKRCALLAAQANKESSSESFISRLLAIVADLYEQEQYSDLKIKVGDRHISAHKFVLAARSDSWSLANLSSTKELDLSDANPEVTMTMLRWIYTDELEFREDDVFLTELMKLANRFQLQLLRERCEKGVMSLVNVRNCIRFYQTAEELNASTLMNYCAEIIASHWDDLRKEDFSSMSAQLLYKMIKSKTEYPLHKAIKVEREDVVFLYLIEMDSQLPGKLNEADHNGDLALDLALSRRLESIATTLVSHKADVDMVDKSGWSLLHKGIQRGDLFAATFLIKNGAFVNAATLGAQETPLHLVALYSSKKHSADVMSEMAQIAEALLQAGANPNMQDSKGRTPLHVSIMAGNEYVFSQLLQCKQLDLELKDHEGSTALWLAVQHITVSSDQSVNPFEDVPVVNGTSFDENSFAARLIQRGSHTDAPDTATGNCLLQRAAGAGNEAAALFLATNGAHVNHRNKWGETPLHTACRHGLANLTAELLQQGANPNLQTEEALPLPKEAASLTSLADSVHLQTPLHMAIAYNHPDVVSVILEQKANALHATNNLQIIPDFSLKDSRDQTVLGLALWTGMHTIAAQLLGSGAAINDTMSDGQTLLHMAIQRQDSKSALFLLEHQADINVRTQDGETALQLAIRNQLPLVVDAICTRGADMSVPDEKGNPPLWLALANNLEDIASTLVRHGCDATCWGPGPGGCLQTLLHRAIDENNEPTACFLIRSGCDVNSPRQPGANGEGEEEARDGQTPLHLAASWGLEETVQCLLEFGANVNAQDAEGRTPIHVAISSQHGVIIQLLVSHPDIHLNVRDRQGLTPFACAMTFKNNKSAEAILKRESGAAEQVDNKGRNFLHVAVQNSDIESVLFLISVHANVNSRVQDASKLTPLHLAVQAGSEIIVRNLLLAGAKVNELTKHRQTALHLAAQQDLPTICSVLLENGVDFAAVDENGNNALHLAVMHGRLNNIRVLLTECTVDAEAFNLRGQSPLHILGQYGKENAAAIFDLFLECMPGYPLDKPDADGSTVLLLAYMKGNANLCRAIVRSGARLGVNNNQGVNIFNYQVATKQLLFRLLDMLSKEPPWCDGSYCYECTARFGVTTRKHHCRHCGRLLCHKCSTKEIPIIKFDLNKPVRVCNICFDVLTLGGVS

binding (Flag-ATG2A (human)): binds
B2: mCherry-ANKFY1 (protein, UniProt Q9P2R3 1-1169)
chain: B1 chain

binding (ATG2A-N (1–345) (human)): binds
B3: ANKFY1 (expressed for the immunoprecipitations of Supplementary Fig. S7) (protein, UniProt Q9P2R3 1-1169)
chain: B1 chain

binding [1]: binds
B4: WIPI4 (expressed for the immunoprecipitations of Supplementary Fig. S7) (protein, UniProt Q9Y484 1-360)
chain: MTQQPLRGVTSLRFNQDQSCFCCAMETGVRIYNVEPLMEKGHLDHEQVGSMGLVEMLHRSNLLALVGGGSSPKFSEISVLIWDDAREGKDSKEKLVLEFTFTKPVLSVRMRHDKIVIVLKNRIYVYSFPDNPRKLFEFDTRDNPKGLCDLCPSLEKQLLVFPGHKCGSLQLVDLASTKPGTSSAPFTINAHQSDIACVSLNQPGTVVASASQKGTLIRLFDTQSKEKLVELRRGTDPATLYCINFSHDSSFLCASSDKGTVHIFALKDTRLNRRSALARVGKVGPMIGQYVDSQWSLASFTVPAESACICAFGRNTSKNVNSVIAICVDGTFHKYVFTPDGNCNREAFDVYLDICDDDDF
